These results are taken from publication PMC11751453.

The chains behind the UniProt entries cited, without tags or fusion partners. Residues count along the entry.
UniProt P48023, residues 130-281: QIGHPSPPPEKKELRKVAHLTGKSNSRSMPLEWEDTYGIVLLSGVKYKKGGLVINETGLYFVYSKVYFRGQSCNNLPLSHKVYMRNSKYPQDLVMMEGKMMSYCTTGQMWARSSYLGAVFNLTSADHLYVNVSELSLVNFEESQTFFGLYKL
UniProt P25445, residues 26-335: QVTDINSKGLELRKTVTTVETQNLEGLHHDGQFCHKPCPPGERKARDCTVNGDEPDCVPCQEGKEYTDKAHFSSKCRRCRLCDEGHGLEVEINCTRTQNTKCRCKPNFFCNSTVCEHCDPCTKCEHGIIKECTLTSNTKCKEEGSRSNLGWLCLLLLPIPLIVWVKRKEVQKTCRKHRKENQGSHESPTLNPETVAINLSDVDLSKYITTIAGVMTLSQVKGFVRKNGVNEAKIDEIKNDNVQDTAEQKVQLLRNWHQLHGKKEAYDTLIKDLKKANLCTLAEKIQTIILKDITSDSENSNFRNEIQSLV

This test has as its target Fc-Flag-CD95L (UniProt P48023). The test can be described thus: co-IP; purified Fc-CD95L (1 µg/ml, 90 min) added to HCT116-PIK3CAmut cell variants, unbound ligand washed off, cells lysed, Fc-CD95L with the receptor complex collected on protein G agarose; only the target purified.

No constants are given. Whether binding was seen depends on the method and setting. In cells and extracts the contact can be indirect. Some entries that bind do so weakly or less than the wild type.

Take “CD95 (Apo1/Fas) (from UniProt P25445 26-335) (receptor)”: the binding entry is listed as “binds”.
